{"source": "PubChem BioAssay AID504793 (Drosophila RNAi Screening Center, 2011)", "screen": "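Whole-genome screen for parts of the DNA damage checkpoint at G2/M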 (primary screen)", "cells": "Drosophila S2R+ cells", "reagents": "long dsRNA against Drosophila genes, about 0.25 µg dsRNA per well", "timing": "4 days of dsRNA, then 4 hours of drug before read-out", "conditions": "doxorubicin 0.5 µM for 4 hours to cause double-strand breaks, in cells also given a low, harmless dose of dsRNA against nbs to sensitise the assay", "measurement": "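Mitotic index as the number of phospho-histone H3-positive cells in each well following doxorubicin, given as raw counts without normalisation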", "scale": "mitotic cells: higher = more cells in mitosis, weaker G2 arrest", "call rule": "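Genes are called active only when high mitotic counts were reproduced with independent dsRNAs and mitosis was checked for delay without damage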", "calls": "active = confirmed in follow-up tests; inactive = not confirmed", "note": "In all, the deposit lists about 23,000 reagents; below is an unselected part of those with a known target gene and a result. Over the whole deposit, 62 (0.27%) were called active. 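Calls come from follow-up tests whose scores are not deposited, so confirmed genes may have low counts here; counts are not normalised per plate.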 The raw values are shown without normalisation. A plus sign joins genes that one reagent is predicted to hit."}
{"target":"lncRNA:CR32368","amplicon":"DRSC08899","mitotic cells, replicate 1":13,"Call":"inactive"}
{"target":"lncRNA:CR32368","amplicon":"DRSC25473","mitotic cells, replicate 1":5,"Call":"inactive"}
{"target":"wupA","amplicon":"DRSC20385","mitotic cells, replicate 1":15,"Call":"inactive"}
{"target":"wupA","amplicon":"DRSC22547","mitotic cells, replicate 1":7,"Call":"inactive"}
{"target":"wupA","amplicon":"DRSC29330","mitotic cells, replicate 1":9,"Call":"inactive"}
{"target":"sqz","amplicon":"DRSC16980","mitotic cells, replicate 1":9,"Call":"inactive"}
{"target":"sqz","amplicon":"DRSC28971","mitotic cells, replicate 1":7,"Call":"inactive"}
{"target":"icln","amplicon":"DRSC07630","mitotic cells, replicate 1":7,"Call":"inactive"}
{"target":"icln","amplicon":"DRSC26232","mitotic cells, replicate 1":3,"Call":"inactive"}
{"target":"CG11581","amplicon":"DRSC19407","mitotic cells, replicate 1":9,"Call":"inactive"}
{"target":"CG9948","amplicon":"DRSC11104","mitotic cells, replicate 1":7,"Call":"inactive"}
{"target":"SH3PX1","amplicon":"DRSC11139","mitotic cells, replicate 1":3,"Call":"inactive"}
{"target":"CG5440","amplicon":"DRSC00685","mitotic cells, replicate 1":5,"Call":"inactive"}
{"target":"CG5440","amplicon":"DRSC29429","mitotic cells, replicate 1":7,"Call":"inactive"}
{"target":"mRpL20","amplicon":"DRSC09828","mitotic cells, replicate 1":4,"Call":"inactive"}
{"target":"CG11162","amplicon":"DRSC19391","mitotic cells, replicate 1":12,"Call":"inactive"}
{"target":"CG11162","amplicon":"DRSC22538","mitotic cells, replicate 1":12,"Call":"inactive"}

Continued, starting with the last 2 of the part before.
{"target":"CG11162","amplicon":"DRSC19391","mitotic cells, replicate 1":12,"Call":"inactive"}
{"target":"CG11162","amplicon":"DRSC22538","mitotic cells, replicate 1":12,"Call":"inactive"}
{"target":"Dap160","amplicon":"DRSC03313","mitotic cells, replicate 1":7,"Call":"inactive"}
{"target":"Dap160","amplicon":"DRSC27467","mitotic cells, replicate 1":3,"Call":"inactive"}
{"target":"spin","amplicon":"DRSC07176","mitotic cells, replicate 1":10,"Call":"inactive"}
{"target":"spin","amplicon":"DRSC22271","mitotic cells, replicate 1":4,"Call":"inactive"}
{"target":"skl","amplicon":"DRSC10050","mitotic cells, replicate 1":10,"Call":"inactive"}
{"target":"CG15386 + CG42371","amplicon":"DRSC00400","mitotic cells, replicate 1":6,"Call":"inactive"}
{"target":"CG15386 + CG42371","amplicon":"DRSC30077","mitotic cells, replicate 1":3,"Call":"inactive"}
{"target":"CG31380","amplicon":"DRSC15688","mitotic cells, replicate 1":18,"Call":"inactive"}
{"target":"CG13603","amplicon":"DRSC14606","mitotic cells, replicate 1":2,"Call":"inactive"}
{"target":"CG8289","amplicon":"DRSC20101","mitotic cells, replicate 1":5,"Call":"inactive"}
{"target":"CG8289","amplicon":"DRSC25677","mitotic cells, replicate 1":8,"Call":"inactive"}
{"target":"CG11790","amplicon":"DRSC14390","mitotic cells, replicate 1":2,"Call":"inactive"}
{"target":"CG10013","amplicon":"DRSC14175","mitotic cells, replicate 1":8,"Call":"inactive"}
{"target":"IleRS-m","amplicon":"DRSC10506","mitotic cells, replicate 1":6,"Call":"inactive"}
{"target":"GstD1","amplicon":"DRSC16683","mitotic cells, replicate 1":8,"Call":"inactive"}
{"target":"GstD1","amplicon":"DRSC27603","mitotic cells, replicate 1":5,"Call":"inactive"}
{"target":"AstA","amplicon":"DRSC14634","mitotic cells, replicate 1":11,"Call":"inactive"}
